In the supplement of paper PMC3334620:
Whole data set: some 33,000 sequences, median “E-score (-0.5 to 0.5)” near -0.0034, cut for the highest 2% near 0.25. This is one part of the list.

Target: T1, Yap3 (UniProt P38749)
T1 sequence: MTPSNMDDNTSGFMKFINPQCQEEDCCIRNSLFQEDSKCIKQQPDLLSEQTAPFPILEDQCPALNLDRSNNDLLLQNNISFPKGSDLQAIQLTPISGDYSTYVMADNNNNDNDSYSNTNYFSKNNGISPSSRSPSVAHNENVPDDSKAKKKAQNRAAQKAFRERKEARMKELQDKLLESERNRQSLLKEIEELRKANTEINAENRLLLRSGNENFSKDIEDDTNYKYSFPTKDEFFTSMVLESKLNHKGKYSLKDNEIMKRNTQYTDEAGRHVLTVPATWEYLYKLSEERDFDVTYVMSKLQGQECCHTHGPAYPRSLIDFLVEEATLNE
Experiment: PBM E-score (8-mer binding enrichment) (E-score (-0.5 to 0.5)); higher = stronger / more preferred TF binding
Settings: protein concentration: 100 nM; construct: GST-full length
Experimental: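 Universal 'all 10-mer' protein binding microarrays (Agilent AMADID 015681) probed with GST-tagged S. cerevisiae TFs (full-length or DBD) made by in vitro transcription/translation (PURExpress), about 100-200 nM. Bound TF was detected with fluorescent anti-GST. Each ungapped 8-mer (which stands for itself and its reverse complement) is scored by the PBM enrichment score (E-score), a modified Wilcoxon-Mann-Whitney statistic from -0.5 to +0.5, computed with the Universal PBM Analysis Suite. Scale: above 0.35 generally sequence-specific binding.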

Sequence	PBM E-score
CAGACATC	0.0124
AATGCGGG	0.217
GGCGTACC	-0.0845
CCAAGTGA	0.0813
ATCGCACC	-0.106
AAGGTTCC	-0.0546
CTTGAATA	0.113
GAACTAGA	0.0868
ACGCTGCT	-0.0643
CAAATTGC	0.0855
GGAGGAGA	-0.189
CCTCCCAA	-0.184
AGTTGTAA	0.0857
ATTTTATA	0.331
CTCCGATA	-0.0427
CCGGTGAC	-0.147
ACTAGCAC	-0.0668
AGGACAGA	-0.00682
GACCAGTC	-0.235
ATGGTGAG	-0.0756
GCTTCTAC	-0.0524
AGCAATGG	-0.114
GTACTCAC	0.147
TTGTCAAA	0.0866
ATTCCCAG	0.0582

Sequence	PBM E-score
CCTTCAAA	0.0729
TAGGTAGA	0.076
AAGTAAAG	0.103
CGTCTCTA	-0.193
GCAAATAA	0.143
ATATGCTA	0.105
CTGGCGAC	-0.182
AACCGTCA	0.0373
AACCTTCG	0.0416
CACAAAGG	-0.1
AGCAGACA	-0.0779
ACGGACAT	-0.0278
CCCACTGA	-0.115
CCACAGCC	-0.133
CCCAGTCC	-0.214
CCTCCTAG	-0.0672
AGGACTGG	-0.221
GTGACATA	0.244
CTCCAGAG	-0.276
AGGGTGCC	-0.152
GGTCGCGA	0.0906
ATAGTCAA	0.0261
AATTCAAA	0.137
ACCAAGGG	0.0222
GGGTGTAA	0.0726

Sequence	PBM E-score
CAGCTCGG	-0.179
ACACGAAT	0.203
GTATCGGA	0.0886
ATTCCGCG	0.15
ACTACCGA	-0.229
CTGCCTGA	0.11
AATATGAA	0.279
AAGCCAGA	-0.0577
AACCTAAT	-0.00022
GAGTCCGC	-0.357
TAGATGGA	-0.0565
CACGGAAA	0.0661
ATCACAAT	0.192
TCCACGCA	-0.0448
ACGTGACG	0.179
CTAGCAAC	0.0522
GGACGCAC	0.00629
GTAGAATA	0.243
AGCTCCAC	-0.143
AAATAAGG	0.143
GGTATAAC	0.0646
ACGCCTCA	-0.123
ATCGGCGC	0.00776
GCATTAAC	0.0405
AGGAAGAC	-0.135

Sequence	PBM E-score
ACACGATG	-0.00607
AAGACGCA	0.0353
GTTACTTA	0.192
AGTTTTAG	0.109
GCGCCCGA	-0.143
TAGCGACA	0.0502
CACCAGAG	-0.215
ACAACTAA	0.245
GCAAGTCA	-0.0314
ACTGACAA	0.164
GGACATGA	-0.0945
ATCCTAAA	-0.101
ACCTAATA	0.274
TCATCGGA	0.0415
TCGGGGCA	-0.0416
ACATTTTC	0.125
GACCTCCC	-0.384
ATCGTCAC	0.0787
TAGGATAA	0.135
CGCTAACC	-0.135
GTGCTTAA	0.119
CCAGAAGG	-0.27
AGGACTCA	-0.196
AACCTGAC	0.108
AGACCTCA	-0.141

Sequence	PBM E-score
AGCTGAAA	-0.101
ATGGCTCA	-0.0722
AATGTCCT	-0.0241
ACCTGCGG	-0.221
CGCATGCC	0.168
CACGATCA	0.0222
AGGTACTC	-0.0481
GAGGGATC	-0.253
ACTCGTGC	-0.0487
GAAGTTTA	0.0974
AGTCGGCG	-0.00585
TAAGCAGA	-0.0647
CCAACGCA	-0.0355
CCCAACGA	-0.0115
ACCTTAGT	-0.156
GACGACTC	-0.183
AGCTATAC	0.0166
ACCGATGG	-0.119
GAAGTTGC	-0.244
CGACATAA	0.189
CTCGCAGC	-0.0243
AGATGCTC	0.0399
CAGTGGCG	-0.151
GTAGGCCA	-0.059
CGTCCCAG	-0.169

Sequence	PBM E-score
ACGTGTTG	0.0914
GACTGAGA	-0.0787
CTACTCCA	0.0135
ACTCGCCT	-0.00195
CATGGTGA	-0.0461
GCGTCCCC	-0.254
CGCTCGAG	0.0723
AGGGTGGC	-0.105
CCCTAGTA	-0.0846
CTCCACGC	-0.0805
ACCGACCT	-0.0186
GAAGACTA	0.0141
GATGGCCC	-0.242
GATAACAA	0.0894
ACTAACGG	0.0217
ATGGCGTA	0.0354
GCTACTTA	0.00558
ACCGGACC	-0.145
CCAATGTC	-0.0611
CATGTGAA	-0.0348
CCCAGGGC	-0.355
GGTCAAAA	0.125
CATGGCTC	0.00976
AGCTGGAC	-0.119
AAAACTAC	0.196

Exported in markdown: part of the list above

| Sequence | PBM E-score |
| --- | --- |
| ACCTTAGT | -0.156 |
| GACGACTC | -0.183 |
| AGCTATAC | 0.0166 |
| ACCGATGG | -0.119 |
| GAAGTTGC | -0.244 |
| CGACATAA | 0.189 |
| CTCGCAGC | -0.0243 |
| AGATGCTC | 0.0399 |
| CAGTGGCG | -0.151 |
| GTAGGCCA | -0.059 |
| CGTCCCAG | -0.169 |
| ACGTGTTG | 0.0914 |
| GACTGAGA | -0.0787 |
| CTACTCCA | 0.0135 |
| ACTCGCCT | -0.00195 |
| CATGGTGA | -0.0461 |
| GCGTCCCC | -0.254 |
| CGCTCGAG | 0.0723 |
| AGGGTGGC | -0.105 |
| CCCTAGTA | -0.0846 |
| CTCCACGC | -0.0805 |
| ACCGACCT | -0.0186 |
| GAAGACTA | 0.0141 |
| GATGGCCC | -0.242 |
| GATAACAA | 0.0894 |
| ACTAACGG | 0.0217 |
| ATGGCGTA | 0.0354 |
| GCTACTTA | 0.00558 |
| ACCGGACC | -0.145 |
| CCAATGTC | -0.0611 |
| CATGTGAA | -0.0348 |
| CCCAGGGC | -0.355 |
| GGTCAAAA | 0.125 |
| CATGGCTC | 0.00976 |
| AGCTGGAC | -0.119 |
| AAAACTAC | 0.196 |

(cont.)

Sequence	PBM E-score
GACTCTGC	-0.159
GGAATGTA	0.0901
CTACCTAA	0.126
AACAGGAT	0.00444
AAAAGGAA	0.0678
GGGCCAAC	-0.0814
CTTTGGCA	-0.152
AACAGCGA	-0.166
ATGAACAA	0.16
AATAGGCA	0.0693
GAGGCTAC	-0.299
CGAGTTTC	0.131
ACGGCGTG	0.13
AGTGGTTG	0.124
GAAGGACC	-0.254
GAATAGCC	-0.167
ACCTTACC	0.182
CCGCTAGC	-0.0972
TAGCAACA	0.114
GGACGCGA	-0.0224
AGCTGTAT	0.0268
AAGCACCA	-0.178
